Results from the supplement of paper PMC10849652.
The other results are listed elsewhere or left out.

Chains of the proteins cited; added tags and fusions are not shown. Lines headed by an entry give the natural chain unless they say otherwise; changes in a name come on top.
UniProt Q6N069: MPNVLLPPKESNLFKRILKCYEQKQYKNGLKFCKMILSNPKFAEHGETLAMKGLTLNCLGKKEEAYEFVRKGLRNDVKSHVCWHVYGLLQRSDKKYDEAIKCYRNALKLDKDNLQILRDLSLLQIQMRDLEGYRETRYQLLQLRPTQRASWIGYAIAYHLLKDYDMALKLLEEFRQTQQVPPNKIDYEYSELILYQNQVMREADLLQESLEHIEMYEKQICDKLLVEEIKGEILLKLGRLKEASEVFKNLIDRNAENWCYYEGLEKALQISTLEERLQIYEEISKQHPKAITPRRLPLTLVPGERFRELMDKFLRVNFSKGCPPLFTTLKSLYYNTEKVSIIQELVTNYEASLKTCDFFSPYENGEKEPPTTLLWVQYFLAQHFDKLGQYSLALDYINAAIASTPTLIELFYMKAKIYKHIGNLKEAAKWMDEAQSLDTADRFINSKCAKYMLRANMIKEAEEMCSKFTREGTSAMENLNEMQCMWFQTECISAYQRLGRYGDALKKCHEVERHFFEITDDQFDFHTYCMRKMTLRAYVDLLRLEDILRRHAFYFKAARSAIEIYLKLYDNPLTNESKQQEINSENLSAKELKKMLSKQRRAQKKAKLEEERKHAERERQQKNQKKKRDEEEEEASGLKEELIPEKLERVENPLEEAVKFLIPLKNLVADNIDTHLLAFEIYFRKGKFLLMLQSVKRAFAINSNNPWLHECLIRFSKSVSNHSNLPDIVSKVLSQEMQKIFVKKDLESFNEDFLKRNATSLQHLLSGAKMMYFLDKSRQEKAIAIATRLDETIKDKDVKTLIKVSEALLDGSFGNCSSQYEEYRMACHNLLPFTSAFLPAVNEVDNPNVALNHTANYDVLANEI
UniProt P60660, whole entry, looked up: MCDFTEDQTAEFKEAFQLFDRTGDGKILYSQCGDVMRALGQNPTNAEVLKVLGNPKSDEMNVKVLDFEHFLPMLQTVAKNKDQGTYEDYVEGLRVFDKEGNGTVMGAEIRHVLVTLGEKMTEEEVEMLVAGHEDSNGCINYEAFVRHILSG
UniProt P84157: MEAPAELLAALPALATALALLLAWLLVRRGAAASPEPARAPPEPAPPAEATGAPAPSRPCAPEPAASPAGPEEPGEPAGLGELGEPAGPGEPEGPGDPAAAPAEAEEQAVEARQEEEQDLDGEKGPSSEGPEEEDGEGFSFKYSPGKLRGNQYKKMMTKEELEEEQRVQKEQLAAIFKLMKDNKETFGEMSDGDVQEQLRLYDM
UniProt G3V1V0: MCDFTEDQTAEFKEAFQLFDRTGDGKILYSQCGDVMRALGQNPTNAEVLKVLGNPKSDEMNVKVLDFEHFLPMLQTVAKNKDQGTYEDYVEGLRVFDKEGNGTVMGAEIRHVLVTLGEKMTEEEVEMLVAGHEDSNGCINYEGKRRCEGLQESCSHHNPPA
UniProt Q9HCH0: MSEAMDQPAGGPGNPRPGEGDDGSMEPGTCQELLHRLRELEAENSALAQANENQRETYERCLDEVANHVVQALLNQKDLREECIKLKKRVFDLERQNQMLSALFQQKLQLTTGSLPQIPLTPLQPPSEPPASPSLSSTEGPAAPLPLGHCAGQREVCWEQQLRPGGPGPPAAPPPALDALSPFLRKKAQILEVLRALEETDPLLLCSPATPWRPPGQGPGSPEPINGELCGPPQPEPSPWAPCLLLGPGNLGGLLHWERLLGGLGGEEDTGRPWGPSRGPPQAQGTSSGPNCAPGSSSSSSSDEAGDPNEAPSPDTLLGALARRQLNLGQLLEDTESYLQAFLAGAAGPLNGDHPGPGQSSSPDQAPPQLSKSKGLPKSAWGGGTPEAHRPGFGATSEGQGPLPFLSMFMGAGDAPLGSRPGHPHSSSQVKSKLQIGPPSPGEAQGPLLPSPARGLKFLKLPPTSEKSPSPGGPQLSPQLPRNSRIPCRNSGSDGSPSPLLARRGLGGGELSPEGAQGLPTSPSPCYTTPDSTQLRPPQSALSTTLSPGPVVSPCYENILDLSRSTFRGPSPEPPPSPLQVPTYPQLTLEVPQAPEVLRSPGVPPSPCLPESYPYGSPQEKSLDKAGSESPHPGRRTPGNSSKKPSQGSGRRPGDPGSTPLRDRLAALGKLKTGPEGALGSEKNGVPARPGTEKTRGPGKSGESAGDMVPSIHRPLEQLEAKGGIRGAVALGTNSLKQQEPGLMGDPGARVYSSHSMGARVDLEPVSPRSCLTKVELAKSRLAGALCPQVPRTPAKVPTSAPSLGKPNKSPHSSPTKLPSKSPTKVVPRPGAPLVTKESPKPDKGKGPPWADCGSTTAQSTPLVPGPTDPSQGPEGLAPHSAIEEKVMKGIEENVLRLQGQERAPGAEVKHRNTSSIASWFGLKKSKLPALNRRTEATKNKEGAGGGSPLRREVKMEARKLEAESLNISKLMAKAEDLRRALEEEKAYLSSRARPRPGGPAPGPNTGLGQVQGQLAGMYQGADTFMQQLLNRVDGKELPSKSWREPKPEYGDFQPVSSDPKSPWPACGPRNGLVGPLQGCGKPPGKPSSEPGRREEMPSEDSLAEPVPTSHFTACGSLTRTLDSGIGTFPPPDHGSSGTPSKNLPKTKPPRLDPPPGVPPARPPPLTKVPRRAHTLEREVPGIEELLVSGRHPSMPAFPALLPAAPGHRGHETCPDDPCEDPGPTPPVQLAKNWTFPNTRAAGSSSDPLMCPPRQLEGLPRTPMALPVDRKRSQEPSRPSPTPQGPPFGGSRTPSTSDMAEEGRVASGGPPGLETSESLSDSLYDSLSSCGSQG
UniProt Q13506: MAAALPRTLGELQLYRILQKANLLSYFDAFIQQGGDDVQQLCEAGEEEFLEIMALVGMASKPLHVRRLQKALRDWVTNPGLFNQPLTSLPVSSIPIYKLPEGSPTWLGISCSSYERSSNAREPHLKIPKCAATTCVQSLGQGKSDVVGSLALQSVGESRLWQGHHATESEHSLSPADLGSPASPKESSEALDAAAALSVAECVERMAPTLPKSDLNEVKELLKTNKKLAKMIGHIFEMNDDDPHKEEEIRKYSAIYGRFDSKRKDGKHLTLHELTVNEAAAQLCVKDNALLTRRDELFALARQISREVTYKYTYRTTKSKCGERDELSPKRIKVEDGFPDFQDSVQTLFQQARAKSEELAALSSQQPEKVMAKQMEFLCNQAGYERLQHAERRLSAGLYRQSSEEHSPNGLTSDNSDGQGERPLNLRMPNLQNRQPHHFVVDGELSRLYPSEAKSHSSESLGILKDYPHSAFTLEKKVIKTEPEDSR
UniProt Q9HD67, whole entry, looked up: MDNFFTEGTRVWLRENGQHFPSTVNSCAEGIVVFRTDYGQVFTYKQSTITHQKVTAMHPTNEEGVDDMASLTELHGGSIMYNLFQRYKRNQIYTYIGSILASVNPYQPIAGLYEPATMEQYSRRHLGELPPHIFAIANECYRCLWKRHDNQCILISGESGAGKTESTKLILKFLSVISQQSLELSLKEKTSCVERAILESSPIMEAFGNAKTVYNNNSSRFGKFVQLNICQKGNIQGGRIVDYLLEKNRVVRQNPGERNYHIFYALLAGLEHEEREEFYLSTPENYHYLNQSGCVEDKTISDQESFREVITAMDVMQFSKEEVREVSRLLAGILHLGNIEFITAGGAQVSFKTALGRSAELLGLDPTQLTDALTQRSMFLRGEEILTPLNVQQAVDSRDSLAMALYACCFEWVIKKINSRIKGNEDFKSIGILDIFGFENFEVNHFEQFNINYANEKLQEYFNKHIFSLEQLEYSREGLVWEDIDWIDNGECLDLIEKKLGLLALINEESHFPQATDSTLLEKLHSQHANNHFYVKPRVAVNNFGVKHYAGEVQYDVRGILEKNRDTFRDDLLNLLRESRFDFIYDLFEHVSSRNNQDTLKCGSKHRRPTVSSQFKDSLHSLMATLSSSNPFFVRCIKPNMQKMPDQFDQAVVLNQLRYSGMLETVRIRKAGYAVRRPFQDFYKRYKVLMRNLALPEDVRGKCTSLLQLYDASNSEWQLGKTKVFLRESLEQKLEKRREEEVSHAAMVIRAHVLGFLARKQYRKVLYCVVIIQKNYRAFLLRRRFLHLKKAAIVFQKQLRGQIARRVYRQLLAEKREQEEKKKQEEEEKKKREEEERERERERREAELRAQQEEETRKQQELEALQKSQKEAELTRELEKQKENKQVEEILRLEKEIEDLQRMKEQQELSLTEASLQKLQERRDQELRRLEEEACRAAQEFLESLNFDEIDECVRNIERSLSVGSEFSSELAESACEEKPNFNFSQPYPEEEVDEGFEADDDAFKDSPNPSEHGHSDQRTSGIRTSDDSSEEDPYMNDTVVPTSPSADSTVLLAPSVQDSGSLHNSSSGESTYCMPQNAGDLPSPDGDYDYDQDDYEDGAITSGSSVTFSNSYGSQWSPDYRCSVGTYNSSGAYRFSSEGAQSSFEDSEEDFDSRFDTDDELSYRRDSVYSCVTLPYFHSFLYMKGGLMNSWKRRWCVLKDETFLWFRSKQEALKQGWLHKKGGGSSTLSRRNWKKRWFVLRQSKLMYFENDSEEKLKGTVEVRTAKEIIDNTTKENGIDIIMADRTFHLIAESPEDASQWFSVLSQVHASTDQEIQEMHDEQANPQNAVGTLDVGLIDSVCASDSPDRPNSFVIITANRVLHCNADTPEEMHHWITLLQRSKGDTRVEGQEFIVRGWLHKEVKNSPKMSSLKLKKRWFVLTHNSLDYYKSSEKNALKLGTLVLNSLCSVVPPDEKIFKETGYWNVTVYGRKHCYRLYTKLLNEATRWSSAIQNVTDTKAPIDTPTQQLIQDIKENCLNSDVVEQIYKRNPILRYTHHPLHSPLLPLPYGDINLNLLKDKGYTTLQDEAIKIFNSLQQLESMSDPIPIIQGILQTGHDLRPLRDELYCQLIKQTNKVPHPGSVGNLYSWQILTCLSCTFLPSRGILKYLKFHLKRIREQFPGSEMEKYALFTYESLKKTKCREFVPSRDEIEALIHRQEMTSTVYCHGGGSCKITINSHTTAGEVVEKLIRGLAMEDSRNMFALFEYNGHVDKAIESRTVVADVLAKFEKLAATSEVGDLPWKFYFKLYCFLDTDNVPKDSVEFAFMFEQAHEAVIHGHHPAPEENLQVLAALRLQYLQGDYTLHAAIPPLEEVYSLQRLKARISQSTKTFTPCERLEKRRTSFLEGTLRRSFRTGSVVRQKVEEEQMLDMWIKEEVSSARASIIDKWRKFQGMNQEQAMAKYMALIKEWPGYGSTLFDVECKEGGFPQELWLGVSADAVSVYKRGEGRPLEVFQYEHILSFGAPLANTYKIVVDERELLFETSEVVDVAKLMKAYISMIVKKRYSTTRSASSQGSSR
UniProt Q15080: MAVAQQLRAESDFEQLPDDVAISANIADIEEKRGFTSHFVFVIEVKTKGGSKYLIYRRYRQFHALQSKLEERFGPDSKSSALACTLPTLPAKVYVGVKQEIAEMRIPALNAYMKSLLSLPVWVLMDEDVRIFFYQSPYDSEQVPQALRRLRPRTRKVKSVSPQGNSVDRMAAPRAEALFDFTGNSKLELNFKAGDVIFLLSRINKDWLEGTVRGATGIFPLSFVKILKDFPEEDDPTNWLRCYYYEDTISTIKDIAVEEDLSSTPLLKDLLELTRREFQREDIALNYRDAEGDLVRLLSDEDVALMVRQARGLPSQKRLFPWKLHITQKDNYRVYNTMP
UniProt P10244: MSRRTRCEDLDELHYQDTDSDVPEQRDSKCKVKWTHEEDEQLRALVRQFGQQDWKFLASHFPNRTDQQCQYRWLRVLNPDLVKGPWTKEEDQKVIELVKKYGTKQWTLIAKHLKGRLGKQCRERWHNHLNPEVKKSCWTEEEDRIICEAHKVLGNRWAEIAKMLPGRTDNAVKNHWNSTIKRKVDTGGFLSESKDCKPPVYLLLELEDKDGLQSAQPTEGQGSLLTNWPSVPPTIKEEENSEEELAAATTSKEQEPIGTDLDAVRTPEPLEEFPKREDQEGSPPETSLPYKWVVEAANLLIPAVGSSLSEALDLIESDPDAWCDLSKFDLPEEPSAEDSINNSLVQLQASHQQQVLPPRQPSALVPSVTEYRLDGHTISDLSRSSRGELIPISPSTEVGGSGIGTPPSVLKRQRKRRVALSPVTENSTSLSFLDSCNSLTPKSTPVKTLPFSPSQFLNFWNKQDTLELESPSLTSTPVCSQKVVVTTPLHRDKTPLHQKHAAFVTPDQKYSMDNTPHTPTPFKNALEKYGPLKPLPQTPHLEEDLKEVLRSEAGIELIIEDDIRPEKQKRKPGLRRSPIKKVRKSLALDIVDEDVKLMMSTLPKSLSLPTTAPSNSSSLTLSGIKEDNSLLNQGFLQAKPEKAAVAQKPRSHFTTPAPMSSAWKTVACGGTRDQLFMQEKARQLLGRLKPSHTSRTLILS
UniProt Q8WUY8: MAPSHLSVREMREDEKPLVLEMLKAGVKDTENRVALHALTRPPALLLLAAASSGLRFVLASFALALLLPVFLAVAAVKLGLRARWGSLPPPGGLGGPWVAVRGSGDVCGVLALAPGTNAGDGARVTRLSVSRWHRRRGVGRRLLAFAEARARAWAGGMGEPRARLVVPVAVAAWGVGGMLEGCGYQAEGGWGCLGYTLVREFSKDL

Compound: CS(=O)(=O)CCNCc1ccc(-c2ccc3ncnc(Nc4ccc(OCc5cccc(F)c5)c(Cl)c4)c3c2)o1 [lapatinib]
Assay: log2 fold change, soluble protein after heating vs DMSO (PISA); higher = thermal stabilisation; K562 lysate, 10 uM; active = over 0.2 and 3.5 SD of the protein, either way, in both replicates (recomputed)
Method in brief: (§1)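 Log-two fold change in thermal stability relative to solvent controls is reported from duplicates. For each sample, crude K562 extract from dounce-homogenised pellets in PBS pH 7.4 with 1 mM MgCl2, at 1 mg/mL protein, was treated with 10 μM compound for 30 min. Aliquots heated for 3 min across 48°C-58°C were pooled, brought to 0.5% NP-40 at 4°C and cleared at 21,000xg for 90 min. The supernatant was quantified by TMTpro 16plex LC-MS/MS with channel sums equalised.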

Target	log2 fold change
NAA16 (UniProt Q6N069)	inactive: 0.048
NCOA7 isoform 2 (UniProt Q8NI08)	inactive: -0.072
MYL6 isoform 2 (UniProt P60660)	inactive: -0.012
MXRA7 (UniProt P84157)	inactive: -0.039
MYL6 (UniProt G3V1V0)	inactive: 0.049
NCKAP5L (UniProt Q9HCH0)	inactive: 0.04
NAMPT (UniProt C9JF35)	inactive: -0.325
MUC5B (UniProt Q9HC84)	inactive: -0.071
N4BP3 (UniProt O15049)	inactive: -0.065
NAP1L4 (UniProt C9JZI7)	inactive: 0.225
NCOA1 isoform 2 (UniProt Q15788)	inactive: -0.088

Compound: CS(=O)(=O)N1CCN(Cc2cc3nc(-c4cccc5[nH]ncc45)nc(N4CCOCC4)c3s2)CC1 [pictilisib]
Assay: as above
Method in brief: as §1

Target	log2 fold change
MYH7 (UniProt P12883)	inactive: -1.97
NCS1 (UniProt P62166)	inactive: -0.143
NAA16 (UniProt Q6N069)	inactive: -0.108
NAB1 (UniProt Q13506)	inactive: -0.023
MYO10 (UniProt Q9HD67)	inactive: 0.076
MXRA8 isoform 2 (UniProt Q9BRK3)	inactive: -0.016
NCF4 (UniProt Q15080)	inactive: -0.107
NATD1 (UniProt Q8N6N6)	inactive: -0.097
NAB2 (UniProt Q15742)	inactive: -0.033
N4BP3 (UniProt O15049)	inactive: -0.08
NCL (UniProt H7BY16)	inactive: -0.117
MYH2 (UniProt Q9UKX2)	inactive: -1.94

Compound: C[C@@H](Oc1cc(-c2cnn(C3CCNCC3)c2)cnc1N)c1c(Cl)ccc(F)c1Cl [crizotinib]
Assay: as above
Method in brief: as §1

Target	log2 fold change
NCS1 (UniProt P62166)	inactive: 0.029
NACC2 (UniProt Q96BF6)	inactive: -0.006
NAB1 (UniProt Q13506)	inactive: -0.016
MYO10 (UniProt Q9HD67)	inactive: -0.042
MYL6 isoform 2 (UniProt P60660)	inactive: -0.026
MYBL2 (UniProt P10244)	inactive: -0.018
MXRA7 (UniProt P84157)	inactive: 0.103
NARS1 (UniProt K7ENF0)	inactive: 0.133
NCF4 (UniProt Q15080)	inactive: -0.151
NATD1 (UniProt Q8N6N6)	inactive: -0.039
MYL6 (UniProt G3V1V0)	inactive: 0.029
NCKAP5L (UniProt Q9HCH0)	inactive: 0.008
MUC5B (UniProt Q9HC84)	inactive: -0.042
NAB2 (UniProt Q15742)	inactive: 0.039
NAT14 (UniProt Q8WUY8)	inactive: -0.096
NCLN isoform 2 (UniProt Q969V3)	inactive: -0.234

Compound: C[C@H](C1=CC=C(C=C1)C(=O)NC2=C3C=CNC3=NC=C2)N
Assay: as above
Method in brief: as §1

Target	log2 fold change
NCS1 (UniProt P62166)	inactive: -0.172
NACC2 (UniProt Q96BF6)	inactive: 0.038
NAB1 (UniProt Q13506)	inactive: -0.165
MYL12A (UniProt P19105)	inactive: 0.066
MYO10 (UniProt Q9HD67)	active: 0.696
MYL6 isoform 2 (UniProt P60660)	inactive: 0.04
MYH3 (UniProt P11055)	inactive: 0.145
MYBL2 (UniProt P10244)	inactive: 0.181
MXRA7 (UniProt P84157)	inactive: -0.149
MYC isoform 2 (UniProt P01106)	inactive: -0.02
NCF4 (UniProt Q15080)	inactive: -0.421
NATD1 (UniProt Q8N6N6)	inactive: -0.076
MYL6 (UniProt G3V1V0)	inactive: 0
NCKAP5L (UniProt Q9HCH0)	inactive: 0.02
NAMPT (UniProt C9JF35)	inactive: -0.313
MUC5B (UniProt Q9HC84)	inactive: 0.268
NAB2 (UniProt Q15742)	inactive: -0.003
NAT14 (UniProt Q8WUY8)	inactive: -0.035
NCOA1 isoform 2 (UniProt Q15788)	inactive: -0.015

Compound: C[C@H](Nc1ncnc2nc[nH]c12)c1cc2cccc(Cl)c2c(=O)n1-c1ccccc1 [duvelisib]
Assay: as above
Method in brief: as §1

Target	log2 fold change
NCS1 (UniProt P62166)	inactive: 0.07
NACA2 (UniProt Q9H009)	inactive: 0.064
NAA16 (UniProt Q6N069)	inactive: 0.029
NCOA7 isoform 2 (UniProt Q8NI08)	inactive: 0.026
NACC2 (UniProt Q96BF6)	inactive: -0.002
NAB1 (UniProt Q13506)	inactive: 0.068
MYOF (UniProt Q9NZM1)	inactive: -0.058
MYL6 isoform 2 (UniProt P60660)	inactive: -0.039
MYH3 (UniProt P11055)	inactive: 0.106
MYBL2 (UniProt P10244)	inactive: -0.011
MXRA7 (UniProt P84157)	inactive: 0.056
NATD1 (UniProt Q8N6N6)	inactive: 0.085
MYL6 (UniProt G3V1V0)	inactive: 0.023
NCKAP5L (UniProt Q9HCH0)	inactive: 0.164
MUC5B (UniProt Q9HC84)	inactive: 0.023
NAB2 (UniProt Q15742)	inactive: -0.073
MYH2 (UniProt Q9UKX2)	inactive: 0.072
MYNN (UniProt Q9NPC7)	inactive: -0.124
NAP1L4 (UniProt C9JZI7)	inactive: 0.167
NAT14 (UniProt Q8WUY8)	inactive: -0.059
NCOA1 isoform 2 (UniProt Q15788)	inactive: -0.037
